# In PubChem BioAssay AID2685 (National Center for Advancing Translational Sciences (NCATS), 2010):
# The list shows a part of the results. The main result of the screen is listed elsewhere. These columns were measured beside it and carry no call. Most of these compounds were active or inconclusive in the main read-out, so they are no random draw. The note in brackets gives the kind of curve behind each potency; many fits are weak.
# Experiment: qHTS Assay for Lipid Storage Modulators in Drosophila S3 Cells;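 on cell number change: cells counted by Cell Tracker Red CMTPX staining in the red channel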
# Conditions: BODIPY lipid droplet fluorescence, 18-24 h; for cell number change: measured here: cell count max response, cells fed with added oleic acid
# Summary of the method: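 Laser-scanning cytometry quantifies lipid droplet accumulation (500–530 nm total intensity; droplet/cell object ratio) in oleic acid-fed (400 uM added) Drosophila S3 cells treated with a concentration series. 20 uM Triacsin C defined 100% inhibition.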
# [1] = measured here: lipid fluorescence (Fed channel) AC50, cells fed with added oleic acid
# [2] = measured here: cell number channel AC50, cells fed with added oleic acid
Compound,cell number change [%],AC50 [1],AC50 [2]
CC(=O)c1ccc(NC(=O)C(C)Sc2nnc3ccccn23)cc1 (stereo unspecified),11.9,"29.1 µM [rising, single point]",
COc1ccc(NS(=O)(=O)c2cccc(C(=O)NCc3ccccc3CN3CCCC3)c2)cc1,-6.01,"0.0291 µM [falling, full curve, poor fit]",
CCOC(=O)c1c(-c2cccc([N+](=O)[O-])c2)csc1NC(=O)C1CCCCC1,-53.8,"20.6 µM [falling, partial curve]","18.4 µM [falling, single point]"
COc1ccc(NC(=O)NNS(=O)(=O)c2cc(C)ccc2C)cc1OC,40.6,"29.1 µM [rising, partial curve]","2.91 µM [rising, full curve]"
COc1cc(/C=C2\SC(N)=NC2=O)ccc1O,-25.3,,
O=C(CSc1ncn[nH]1)Nc1ccccc1-c1ccccc1,30.5,"3.66 µM [falling, partial curve, poor fit]","1.03 µM [rising, full curve, poor fit]"
N#C/C(=C\C=C\c1ccccc1[N+](=O)[O-])C(=O)NCc1ccccc1,-19.2,,"0.0731 µM [falling, full curve, poor fit]"
O=C(Nc1ccc2c(c1)OCCO2)c1cccc(S(=O)(=O)N2CCOCC2)c1,3.5,"0.259 µM [rising, full curve, poor fit]",
CC1CCC(NC(=O)C2CCN(c3cnccn3)CC2)CC1 (stereo unspecified),,,"1.3 µM [rising, partial curve]"
Cc1ccc(NC(=O)c2cc(C(=O)c3cc(Cl)ccc3O)cn(-c3ccc(C)cc3)c2=O)cc1,21.6,"29.1 µM [rising, single point]",
CC(=O)c1c(N2CCN(C(=O)c3ccco3)CC2)nc(=S)n(-c2ccccc2)c1C,6,"0.0651 µM [falling, full curve, poor fit]",
O=C(N[C@@H](Cc1ccccc1)c1nc2ccccc2[nH]1)c1cc([N+](=O)[O-])ccc1Cl,-12,"14.6 µM [rising, partial curve]",
CCOC(=O)c1cc(C#N)c(NCc2ccccc2)nc1C,1.42,"1.84 µM [rising, partial curve]",
CSc1c(C#N)c(N)nc2sc(C(=O)c3ccccc3)c(N)c12,57.4,"4.61 µM [falling, full curve, poor fit]","29.1 µM [rising, single point]"
O=C(CCC(=O)c1ccc(F)cc1)NCC1(N2CCCCC2)CCCCC1,-0.245,,

# Only AC50 [2] and AC50 [1], for 2 of the compounds above:
Compound,AC50 [2],AC50 [1]
CC(=O)c1ccc(NC(=O)C(C)Sc2nnc3ccccn23)cc1 (stereo unspecified),,"29.1 µM [rising, single point]"
COc1ccc(NS(=O)(=O)c2cccc(C(=O)NCc3ccccc3CN3CCCC3)c2)cc1,,"0.0291 µM [falling, full curve, poor fit]"
